PubChem BioAssay AID504791 – Drosophila RNAi Screening Center – 2011

- Purpose: 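Genes of the fly required for silencing by miRNA, siRNA or endo-siRNA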 (primary screen)
- System: Drosophila S2-derived reporter cells
- Knock-down reagent: long dsRNA against Drosophila genes, about 150-250 ng dsRNA per well (siRNA assay); about 80-120 ng (miRNA assay)
- Timing: about 5 days (siRNA assay); about 4 days (miRNA assay)
- Treatment: copper sulfate induction of reporters: 25 µM (siRNA assay); 200 mM stated (miRNA assay), 1-2 days before reading
- Measurement: 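Per-well ratio of Renilla over firefly light, expressed relative to that plate's average ratio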
- Units: stable assay Renilla, run 1 in luminescence; stable assay firefly, run 1 in luminescence
- Hit rule: 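First-pass picks had plate-scaled ratios over 1.5 for the siRNA assay, over 1.6 for the miRNA assay, or under 0.6; two distinct dsRNAs had to score alike on retest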
In all, the deposit lists about 23,000 reagents; below is an unselected part of those with a known target gene and a result. Over the whole deposit, 199 (0.86%) got an active call. 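Plate-scaled ratios behind the calls are not deposited; printed light signals are raw; many rows marked increased or decreased are still called inactive.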 Entries without a mark were called inactive. The record does not give: the direction of the score.

Hesr [DRSC19965] → stable assay Renilla, run 1: 5280; stable assay firefly, run 1: 3.76e5
alpha-Est9 [DRSC12621] → stable assay Renilla, run 1: 8023; stable assay firefly, run 1: 4.29e5
GatA [DRSC16956] → stable assay Renilla, run 1: 8090; stable assay firefly, run 1: 4.38e5
rdgB [DRSC20365] → stable assay Renilla, run 1: 4244; stable assay firefly, run 1: 4.00e5
CG17574 [DRSC06681] → stable assay Renilla, run 1: 5176; stable assay firefly, run 1: 4.58e5
CG42544 [DRSC12451] → stable assay Renilla, run 1: 5732; stable assay firefly, run 1: 3.30e5
vir-1 [DRSC02501] → stable assay Renilla, run 1: 7075; stable assay firefly, run 1: 3.82e5
vir-1 [DRSC02863] → stable assay Renilla, run 1: 9025; stable assay firefly, run 1: 4.84e5
CG33281 [DRSC00421] → stable assay Renilla, run 1: 7034; stable assay firefly, run 1: 3.34e5
Nsun5 [DRSC15835] → stable assay Renilla, run 1: 11399; stable assay firefly, run 1: 5.09e5
Mal-A6 [DRSC07233] → stable assay Renilla, run 1: 6351; stable assay firefly, run 1: 3.33e5
CG15012 [DRSC08465] → stable assay Renilla, run 1: 7997; stable assay firefly, run 1: 3.52e5

Taken from above:
Value for CG42544 [DRSC12451] under “stable assay Renilla, run 1”: 5732
Value of Hesr [DRSC19965] in “stable assay firefly, run 1”: 3.76e5
